Measurements published in PubChem BioAssay AID488859 (Sanford-Burnham Center for Chemical Genomics, 2010).
Screen size: about 1,400 compounds; about 970 (69%) were called active. So high a share suggests a set chosen from earlier hits. Inconclusive results, whose numbers are uncertain, are shown with a selection of clear calls. Rule as the data show it: active = inhibition above about 45%; inconclusive = no clear call, values can overlap the other calls; inactive = below that.

The chains behind the UniProt entries cited, without tags or fusion partners. Where a name states a change or a piece, a line headed by the entry shows the natural chain unless it says otherwise.
UniProt P61088: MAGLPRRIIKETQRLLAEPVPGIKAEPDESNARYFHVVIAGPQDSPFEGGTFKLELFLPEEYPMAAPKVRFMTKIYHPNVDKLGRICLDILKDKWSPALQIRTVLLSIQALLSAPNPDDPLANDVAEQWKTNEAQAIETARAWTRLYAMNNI

What follows are compounds tested against Ubiquitin-conjugating enzyme E2 N (Homo sapiens) (UniProt P61088) (assay: retested blockers of UBC13 chain formation – biochemical, TR-FRET, single concentration, confirmation (AID 488859)). Details: UBC13 polyubiquitination, at 10 µM, stronger effect = higher value.
With `COC(=O)C1=C(c2ccc(F)cc2OCc2ccccc2)C[C@@H]2CC[C@H]1N2C(=O)NC1CCN(Cc2ccccc2)CC1` the inhibition was inactive: 37.7%.
In the case of `CC(=O)N1N=C(c2c(O)n(C)c(=O)n(C)c2=O)CC1c1ccccc1` (stereo unspecified), the inhibition is reported as inactive: 21.5%.
For `COC(=O)C1=C(c2ccc(OCc3ccccc3)cc2)C[C@@H]2CC[C@H]1N2C(=O)NC1CCN(Cc2ccccc2)CC1`, the inhibition was inactive: 30.2%.
`O=C(C(=O)N1CCOCC1)c1cn(Cc2ccccc2)c2ccccc12` was tested, and the inhibition was inactive: 37.4%.
`O=c1c2cc(Br)ccc2[nH]c(=S)n1-c1ccccc1` was tested, and the inhibition was inconclusive: 54.6%.
For `Cc1ccc2[nH]c(=S)n(-c3cccnc3)c(=O)c2c1`, the inhibition was inconclusive: 64.3%.
